PubChem BioAssay AID504786 | Drosophila RNAi Screening Center, 2011

- Purpose: 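Fly genes required for HIF-dependent transcription when hypoxia is mimicked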 (primary screen)
- Cell system: Drosophila S2 cells with a stable HIF luciferase reporter
- Reagents: long dsRNA against Drosophila genes, about 0.2 µg dsRNA per well of a 384-well plate
- Time to read-out: three days of knock-down, then 20 h of DFO before reading
- Treatment: desferrioxamine (DFO) at 100 µM, an iron chelator that mimics hypoxia, for 20 h
- Read-out: 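HIF reporter luminescence in cells given 100 µM DFO for 20 h, using the mouse ldh-a hypoxia-response element, scored as per-plate z-scores; higher means greater loss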
- Direction: z-score: higher = stronger loss of HIF reporter signal
The screen tested about 21,000 reagents; this is a random part of those that have a named target and a result. 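Primary screen; positive scores mean lost reporter signal, so the sign may be inverted from the usual convention.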 Names joined by + are all predicted targets of the reagent.

| Gene | amplicon | z-score, replicate 1 | z-score, replicate 2 | z-score, replicate 3 | z-score, replicate 4 |
| --- | --- | --- | --- | --- | --- |
| CG5644 | DRSC10531 | -0.3 | 0.2 | – | – |
| PhKgamma (Phosphorylase kinase gamma) | DRSC20268 | -0.4 | -0.3 | – | – |
| CG10283 | DRSC02034 | 0 | -0.1 | – | – |
| Syx8 (Syntaxin 8) | DRSC10402 | -0.2 | -0.5 | 1 | -0.4 |
| CG34195 | DRSC06909 | -0.3 | -0.3 | – | – |
| promL (prominin-like) | DRSC08733 | -0.4 | -0.2 | – | – |
| CG2839 | DRSC00544 | -0.4 | -0.6 | – | – |
| ng1 (new glue 1) | DRSC18802 | -0.4 | -0.2 | – | – |
| gt (giant) | DRSC18782 | 0.4 | 1 | – | – |
| Cpr49Af (Cuticular protein 49Af) | DRSC07202 | -0.3 | -0.2 | – | – |
| tho2 | DRSC00646 | -0.1 | 1.9 | – | – |
| Gcn2 | DRSC16678 | -0.3 | -0.2 | – | – |
| Su(var)2-10 (Suppressor of variegation 2-10) | DRSC07721 | -0.7 | -1.3 | – | – |
| Cda9 (Chitin deacetylase-like 9) | DRSC06593 | -0.1 | -0.2 | – | – |
| Cyp9b2 (Cytochrome P450 9b2) | DRSC07390 | -0.3 | -0.5 | – | – |
| CG32436 | DRSC11683 | -0.1 | 0.2 | – | – |
| CG32436 | DRSC11796 | -0.1 | -0.1 | – | – |
| CG33255 (retired record) + hpRNA:CR32205 + hpRNA:CR32207 | DRSC09617 | 0.2 | 0.4 | – | – |
| Syngr (Synaptogyrin) | DRSC06003 | -0.1 | 0.5 | – | – |
| CG2224 | DRSC15429 | -0.3 | -0.7 | – | – |
| sky (skywalker) | DRSC02383 | -0.4 | -0.4 | – | – |
| sky (skywalker) | DRSC03214 | -0.5 | -0.9 | – | – |
| sky (skywalker) | DRSC03215 | -0.4 | -0.6 | – | – |
| CG15390 | DRSC00404 | 0.2 | 0.6 | – | – |
| GIIIspla2 (Phospholipase A2 group III) | DRSC18094 | -0.2 | -0.5 | – | – |
| bap (bagpipe) | DRSC16908 | -0.4 | -0.4 | – | – |
| CG18808 | DRSC08539 | -0.2 | 0.6 | – | – |
| nAChRbeta1 (nicotinic Acetylcholine Receptor beta1) | DRSC08097 | 0 | -0.5 | – | – |
| nAChRbeta1 (nicotinic Acetylcholine Receptor beta1) | DRSC08728 | -0.3 | -0.3 | – | – |
| CG14691 | DRSC14914 | -0.3 | -0.7 | – | – |
| CG12942 | DRSC06253 | -0.2 | 0.1 | – | – |
| rho-4 (rhomboid-4) | DRSC19761 | -0.3 | -0.4 | – | – |
| rho-4 (rhomboid-4) | DRSC19762 | -0.2 | 0.6 | – | – |
| reb (rebuf) | DRSC06308 | -0.3 | -0.4 | – | – |

Entries listed so far whose gene name begins with G or g (3):
| Gene | amplicon | z-score, replicate 1 | z-score, replicate 2 | z-score, replicate 3 | z-score, replicate 4 |
| --- | --- | --- | --- | --- | --- |
| gt (giant) | DRSC18782 | 0.4 | 1 | – | – |
| Gcn2 | DRSC16678 | -0.3 | -0.2 | – | – |
| GIIIspla2 (Phospholipase A2 group III) | DRSC18094 | -0.2 | -0.5 | – | – |
